These are yes or no findings as the source states them, for the method shown. Some entries that bind do so weakly or less than the wild type. Blank lines part the entries; values can stand above or below the binder they belong to.
How the values were obtained:
[1] = biological target: human GPRC5D having the amino acid sequence set forth in SEQ ID NO: 97 (target protein of the epitope mapping; also the reagent for CAR detection) (human) (UniProt Q9NZD1); test: flow cytometry of CAR-transduced human T cells
[2] = biological target: T1, GPRC5D peptide stretch 10GDYFLLCD17 (N-term) (human); test: Pepscan ELISA on structurally constrained peptide arrays, high stringency, 1 ug/ml
T1 sequence (peptide): GDYFLLCD

Chains of the proteins cited; added tags and fusions are not shown. Lines headed by an entry give the natural chain unless they say otherwise; changes in a name come on top.
UniProt Q9NZD1: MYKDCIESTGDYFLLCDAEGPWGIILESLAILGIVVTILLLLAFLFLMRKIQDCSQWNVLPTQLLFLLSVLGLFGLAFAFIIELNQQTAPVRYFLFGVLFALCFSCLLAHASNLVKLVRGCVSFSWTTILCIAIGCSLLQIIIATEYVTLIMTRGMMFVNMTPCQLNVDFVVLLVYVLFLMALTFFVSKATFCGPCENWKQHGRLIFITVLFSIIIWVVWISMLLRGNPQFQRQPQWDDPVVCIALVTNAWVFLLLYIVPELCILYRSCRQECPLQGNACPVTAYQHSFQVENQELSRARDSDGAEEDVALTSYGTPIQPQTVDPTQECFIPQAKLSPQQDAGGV

[3] = biological target: T2, GPRC5D peptide stretch 227…237 (ECL3) (human); test: as above
T2 sequence (peptide): GNPQFQRQPQW

binding [1]: binds
B1: GPRC5D-targeted 28z CAR18 (GRPC5D 28z CAR18), expressed on human T cells (protein)
chain: QSVVTQPPSMSAAPGQQVTISCSGGNSNIERNYVSWYLQLPGTAPKLVIFDNDRRPSGIPDRFSGSKSGTSATLGITGLQTGDEADYYCGTWDSSLRGWVFGGGTKLTVLGSRGGGGSGGGGSGGGGSLEMAEVQLVESGGGLIQPGGSLRLSCAASGFTFSNYAMNWVRQAPGKGLEWVSTINGRGSSTIYADSVKGRFTISRDNSKNTLYLQMNSLRAEDTATYYCARYISRGLGDSWGQGTLVTVIEVMYPPPYLDNEKSNGTIIHVKGKHLCPSPLFPGPSKPFWVLVVVGGVLACYSLLVTVAFIIFWVRSKRSRLLHSDYMNMTPRRPGPTRKHYQPYAPPRDFAAYRSRVKFSRSADAPAYQQGQNQLYNELNLGRREEYDVLDKRRGRDPEMGGKPRRKNPQEGLYNELQKDKMAEAYSEIGMKGERRRGKGHDGLYQGLSTATKDTYDALHMQALPPR

binding [2]: binds
binding [3]: binds
B2: ET150-18 mIgG1 (antibody, V domains shown)
VH: EVQLVESGGGLIQPGGSLRLSCAASGFTFSNYAMNWVRQAPGKGLEWVSTINGRGSSTIYADSVKGRFTISRDNSKNTLYLQMNSLRAEDTATYYCARYISRGLGDSWGQGTLVTV
VL: QSVVTQPPSMSAAPGQQVTISCSGGNSNIERNYVSWYLQLPGTAPKLVIFDNDRRPSGIPDRFSGSKSGTSATLGITGLQTGDEADYYCGTWDSSLRGWVFGGGTKLTVLG
